Results are given in words; binding and its absence hold for the method and conditions named. Some binding calls cover weakened binding; strength is not graded here.
Columns and labels:
[1] = target: recombinant human MOG protein (human) (UniProt Q16653); experiment: phage-scFv ELISA, compared with phage-scFv-8-18C5 positive control
[2] = target: recombinant murine MOG protein (murine) (UniProt Q61885); experiment: as above

By UniProt entry, the sequences of proteins in these tests, tags left out. Residues count along the entry.
UniProt Q16653, residues 30-154: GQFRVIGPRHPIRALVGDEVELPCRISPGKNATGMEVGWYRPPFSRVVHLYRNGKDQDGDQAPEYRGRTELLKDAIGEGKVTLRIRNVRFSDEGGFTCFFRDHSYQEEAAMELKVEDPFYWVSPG
UniProt Q61885, residues 29-156: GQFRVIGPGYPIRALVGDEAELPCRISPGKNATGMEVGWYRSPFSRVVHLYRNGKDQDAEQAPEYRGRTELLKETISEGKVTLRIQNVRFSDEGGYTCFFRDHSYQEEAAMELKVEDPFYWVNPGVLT

binding [1] | binding [2] | Binder
binds | binds | anti-MOG MO3J-23 antibody (scFv, V domains shown) VH: DQVQLVQSGAEVKPGASVKVSCKASGYTFTSYGISWVRQAPGQGLEWMGWISAYNGNTNYAQKLQGRVTMTTDTSTSTAYMELRSLRSDDTAVYYCARDPVGSLRPYYMDVWGEGTTVTVSS VL: DIVMTQSPSTLSASVGDRVTITCRASQSISTWLAWYQQKPGKAPKLLIYAASSLQSGVPSRFSGSGSGTDFTLTISSLQPEDFATYYCQQSYSTPRTFGQGTKVEIK
binds | binds | anti-MOG MO3B-03 antibody (scFv, V domains shown) VH: QVQLQQSGPGLVRPSQTLSLTCAISGDSVSSSSAAWNWVRSPSRGLEWLGRTYYRSKWYYDYAVSVKNRIAINPDTSKNQFSLHLNSVTPEDTAVYYCATGWLRGHLDYWGQGTLVTVSS VL: AIQMTQSPSSVSASVGDRVTITCRATQSISTYLNWYQQKVGRGPKLLVYAASRLQTGVPSRFSGSGSGTDFTLTISSLQPEDSATYYCQQSYSAPPAFGGGTKVEIK
binds | binds | anti-MOG MO3F-02 antibody (scFv, V domains shown) VH: QVQLQQSGPGLVKPSQTLSLTCAISGDSVSSNSAAWNWIRKSPSRGLEWLGRTYYRSKWYNDYAVSVKSRITINPDTSKNQFSLQLSSVTPEDTAVYYCARASAGTFGYWGQGTLVTVSS VL: DIVMTQSPSSLSASVGDRVTMTCRASQTINTYLNWYQQKPGKAPKLLIYAASTLQSGVPSRFSGSGSGTDFSLTISSLQPEDFATYYCQHGYNNPPFTFGPGTKVDIK
binds | binds | anti-MOG MO3J-12 antibody (scFv, V domains shown) VH: EVQLLESGGGLVQPGGSLRLSCAASGFTFSTYWMHWVRQAPGRGLVWVSRINTDGSSTDYADSVKGRFTISRDNAKNTLYLQMNSLRAEDTAVYSCARGGQLVAAANDNWLDPWGQGTLVTVSS VL: AIQLTQSPSSLSASAGDRVTITCRASQSINNYLNWYQQKPGKAPKVLIYGASNLQSGVPSRFSGSGSGTDFTLTISSLQPEDFATYYCQQSYSTPRTFGQGTKVEIK
binds | binds | anti-MOG MO3J-37 antibody (scFv, V domains shown) VH: EVQLVESGGGLVQPGRSLRLSCAASGFTFDDYAMHWVRQAPGKGLEWVSGISWNSGSIGYADSVKGRFTISRDNAKNSLYLQMNSLRAEDTALYYCAKDMRAVAGTEGAFDIWGQGTMVTVSS VL: QSVVTQPPSMSAAPGQKVTISCSGSSSNIGNNYVSWYQQLPGTAPKLLIYENNKRPSGISDRFSGSKSGTSATLGITGLQTGDEADYYCATGDSGMTLVFGGGTKLTVL
binds | binds | anti-MOG MO3J-44 antibody (scFv, V domains shown) VH: QVQLVQSGAEVRKPGASVKISCQISGYNFISYTIQWVRQAPGQRPEWMGWINSGNGNTKYSQKFQGRVTFTRDTSTSTAYMELSSLRSEDTAVYYCARSGIGPWGQGTLVTVSS VL: EIVLTQPPDLQSVTPKKKVTITCRASQSIGNSLHWCQQKPDQSPKLLIKYASQSISGVPSRFSGSGSGTDFTLTINSLEAEDAATYYCHQSSSLPFTFGPGTKVDIK
binds | binds | anti-MOG MO4B-43 antibody (scFv, V domains shown) VH: DEVQLLESGGGLVPGGSLRLSCEVSGFSFSNHAMHWVRQAPGKALEHLSVLGSDGRSTYYADSVKGRFTISRDISKTTVYLQMGSLRPGDMGVYYCARGLYGDHWDASDLWGQGTMVTVSS VL: EIVMTQSPATLSVSPAERVILSCRASQSVGNNVAWFQQKPGQAPRLLIHGASSRATGIPTRFSGSGSGTELTLTISSLQSEDFAVYYCQQYGSAPITFGQGTRLEIK
binds | binds | anti-MOG MO3I-56 antibody (scFv, V domains shown) VH: QVQLVESGGGVVQPGSSLRLSCTASGFKFDDYAMHWVRQAPGKGLEWVSGISWNSGSIGYADSVKGRFTISRDNAKNSLYLQMNSLRAEDTASYYCAKSLPHYYDSPPYGMDVWGQGTLVTVSS VL: DIQLTQSPSSLSASVGDRVTITCRASQGISSALAWYQQKPGKAPKLLIYDASSLESGVPSRFSGSGSGTDFTLTISSLQPEDFATYYCQHRGTFGGGTKVDIK
binds | – | anti-MOG MO3J-72 antibody (scFv, V domains shown) VH: EVQLVESGGGSVKPGGSLRLSCAASGFRFDDYAMHWVRQAPGKGLEWVSGISWNSGAIGYADSVQGRFTISGDNAKNTLYLQMNGLRVEDTAMYYCARDGHGDYPIDYWGQGTLVTVSS VL: QSVLTQPPSVSGAPGQRVSISCTGSGSNIGAGFDVHWYQQVPGTTPKLLIYGNNNRPSGVPDRFSGSTSATSASLAITGLQADDEADYYCQSYDRSLRYVFGTGTKLTVL
binds | binds | anti-MOG MO3J-43 antibody (scFv, V domains shown) VH: EVQLVESGGGLVKPGGSLRLSCAASGFTFSDYYMSWIRQAPGKGLEWVSYISSSGNTIYYADSVKGRFTISRDNAKNSLYLQMNSLRAEDTAVYYCAKDSPVPTVWGQGTLVTVSS VL: QSVVTQPPSVSGAPGQRVSISCTGGSSNIGADYDVHWYQQLPGTAPKLLIYGNNNRPSGVPDRFSGSKSGTSASLAISGLQPEDEAVYYCQSYDSGLRSSVFGGGTKLTVL
binds | – | anti-MOG MO4H-55 antibody (scFv, V domains shown) VH: QVQLQQSGPGLVKPSQTLSLTCAISGDSVSSNSAAWNWIRQSPSRGLEWLGRTYYRSKWYNDYAESVKSRMTVTSDTSKNQVSLHLNSVTPEDTAVYYCAREHIAVPGVFDIWGQGTLVTVSS VL: DVVMTQPPSASGTPGQGVTISCSGSSSNIGSNTVNWYQQLPGTAPKLLIYGSGQRPSGVPDRFSGSRSGTSASLAISGLQSEDEADYYCAAWDDSLNGRVFGQGTKVDIT
binds | binds | anti-MOG MO3J-26 antibody (scFv, V domains shown) VH: QVQLVQSGAEVKKPGSSVKVSCKASGGTFSTYTLSWVRQAPGKGLEWMGGFDPEDGETIYAQKFQGRVTMTEDTSTDTAYLELSSLRSDDTAVYYCAADEFWGPGTLVTVSS VL: QSVLTQPPSVSAAPGQTVTISCSGSSSNIGNNYVSWYQQLPGTAPKLLIYDNNKRPSGIPDRFSGSKSGTSATLGITGLQTGDEADYYCGTWDSSLSAVVFGGGTKLTVL
binds | binds | anti-MOG MO3J-19 antibody (scFv, V domains shown) VH: EVQLVQSGAEVKKPGASVKVSCKASGYTFTSYGISWVRQAPGQGLEWMGWISAYNGNTNYAQKLQGRVTMTTDTSTSTAYMELRSLRSDDTAVYYCARNMGCSSTSCFVSWFDPWGQGTLVTVSS VL: QSVLTQPPSASGTPGQRVTISCSGSTSNIGSQIVNWYQQLPGTAPRLIIYNDNERPSGVSDRFSGSKSDTSASLAISGLQSEDEADYYCAAWDDSLNGYVFGTGTKVTVL
binds | binds | anti-MOG MO3J-51 antibody (scFv, V domains shown) VH: EVQLVQSGAEVKKPGASVKVSCKASGYTFTSYGISWVRQAPGQGLEWMGWISAYNGNTNYAQKLQGRVTMTTDTSTSTAYMELRSLGSDDTAVYYCARNMGCSSTSCFVSWFDPWGQGTLVTVSS VL: QSVLTQPPSVSAAPGRKVTISCSGSSSNIGNNYVAWYQQLPGTAPKLLIYENNKRPSGIPGRFSGSKSATSATLGITGLQTGDEADYYCGTWDNSLSAWVFGGGTKLTVL
binds | binds | anti-MOG MO3I-57 antibody (scFv, V domains shown) VH: QVQLVQSGAEVKKPGASVKVSCKASGYTFSSYGISWVRQAPGQGLEWMGWISANTGNTDYAERLQGRVTMTTDTSTTTAYMELRSLRSDDTAVYYCARGAPNGYAVDYWGQGTLVTVSS VL: QSVLTQPPSASGAPGQRVSISCSGSSSNIGTNHVYWYQQFTGMAPKLIIDTNNQRPPGVPARFSGSKSGTSASLAISGLRSEDESDYYCLTWDDGLYDWVFGGGTKLTVL
